{"source": "PubChem BioAssay AID1224830 (NIAID, 2016)", "test": "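Genes whose knock-down alters the TNF-alpha reporter response to LPS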 (primary screen)", "cells": "human THP-1 monocytic leukaemia cells, TNF dual-luciferase reporter clone, PMA-differentiated to macrophage-like cells", "reagents": "siRNA pool against human genes, 50 nM", "duration": "LPS for 4 h, given about 3 days after siRNA transfection", "treatment": "bacterial LPS (TLR4 ligand), 10 ng/ml", "read-out": "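Ratio of firefly to renilla light, scaled to the plate median and expressed as a robust z-score per replicate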", "scale": "TNF reporter robust z-score: higher = stronger TNF reporter response to LPS", "rule for the call": "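Each well counts as active if its z-score is over 2.8 or under -1.5; controls are left without a call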", "note": "The deposit covers about 18,000 reagents; below is a random part of them. About 2,900 of them (16%) were called active. 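Calls are made per well; low scores hint the gene aids the LPS response, high scores that it dampens it.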 A number with no mark means an inactive call. Repeated entries: four replicate wells of each siRNA pool."}
{"gene knocked down": "OR5B2 (olfactory receptor family 5 subfamily B member 2)", "TNF reporter robust z-score": -0.25}
{"gene knocked down": "OR5B2 (olfactory receptor family 5 subfamily B member 2)", "TNF reporter robust z-score": -0.14}
{"gene knocked down": "OR5B2 (olfactory receptor family 5 subfamily B member 2)", "TNF reporter robust z-score": -0.08}
{"gene knocked down": "GATA1 (GATA binding protein 1)", "TNF reporter robust z-score": -0.5}
{"gene knocked down": "GATA1 (GATA binding protein 1)", "TNF reporter robust z-score": -0.17}
{"gene knocked down": "GATA1 (GATA binding protein 1)", "TNF reporter robust z-score": -0.25}
{"gene knocked down": "GATA1 (GATA binding protein 1)", "TNF reporter robust z-score": -0.47}
{"gene knocked down": "KMT5A (lysine methyltransferase 5A)", "TNF reporter robust z-score": -0.77}
{"gene knocked down": "KMT5A (lysine methyltransferase 5A)", "TNF reporter robust z-score": -0.58}
{"gene knocked down": "KMT5A (lysine methyltransferase 5A)", "TNF reporter robust z-score": -0.12}
{"gene knocked down": "NIPAL3 (NIPA like domain containing 3)", "TNF reporter robust z-score": 1.54}
{"gene knocked down": "NIPAL3 (NIPA like domain containing 3)", "TNF reporter robust z-score": -0.05}
{"gene knocked down": "NIPAL3 (NIPA like domain containing 3)", "TNF reporter robust z-score": -0.79}
{"gene knocked down": "NIPAL3 (NIPA like domain containing 3)", "TNF reporter robust z-score": 0.46}
{"gene knocked down": "KLHL24 (kelch like family member 24)", "TNF reporter robust z-score": 0.48}
{"gene knocked down": "KLHL24 (kelch like family member 24)", "TNF reporter robust z-score": 1.6}
{"gene knocked down": "KLHL24 (kelch like family member 24)", "TNF reporter robust z-score": 0.28}
{"gene knocked down": "KLHL24 (kelch like family member 24)", "TNF reporter robust z-score": 0.27}
{"gene knocked down": "AVPR2 (arginine vasopressin receptor 2)", "TNF reporter robust z-score": 0.59}
{"gene knocked down": "AVPR2 (arginine vasopressin receptor 2)", "TNF reporter robust z-score": 1.44}
{"gene knocked down": "AVPR2 (arginine vasopressin receptor 2)", "TNF reporter robust z-score": 1.82}
{"gene knocked down": "AVPR2 (arginine vasopressin receptor 2)", "TNF reporter robust z-score": 0.73}

Additional entries follow.
{"gene knocked down": "PRKD2 (protein kinase D2)", "TNF reporter robust z-score": 0.32}
{"gene knocked down": "PRKD2 (protein kinase D2)", "TNF reporter robust z-score": 0.5}
{"gene knocked down": "PRKD2 (protein kinase D2)", "TNF reporter robust z-score": 2.34}
{"gene knocked down": "PRKD2 (protein kinase D2)", "TNF reporter robust z-score": 2.13}
{"gene knocked down": "ROGDI (rogdi atypical leucine zipper)", "TNF reporter robust z-score": 0.41}
{"gene knocked down": "ROGDI (rogdi atypical leucine zipper)", "TNF reporter robust z-score": 0.88}
{"gene knocked down": "ROGDI (rogdi atypical leucine zipper)", "TNF reporter robust z-score": 1.55}
{"gene knocked down": "ROGDI (rogdi atypical leucine zipper)", "TNF reporter robust z-score": 0.73}
{"gene knocked down": "CHRDL1 (chordin like 1)", "TNF reporter robust z-score": -0.8}
{"gene knocked down": "CHRDL1 (chordin like 1)", "TNF reporter robust z-score": -0.58}
{"gene knocked down": "CHRDL1 (chordin like 1)", "TNF reporter robust z-score": -0.35}
{"gene knocked down": "CHRDL1 (chordin like 1)", "TNF reporter robust z-score": -0.59}
{"gene knocked down": "PISD (phosphatidylserine decarboxylase)", "TNF reporter robust z-score": -0.7}
{"gene knocked down": "PISD (phosphatidylserine decarboxylase)", "TNF reporter robust z-score": -0.43}
{"gene knocked down": "PISD (phosphatidylserine decarboxylase)", "TNF reporter robust z-score": -0.28}
{"gene knocked down": "ITIH6 (inter-alpha-trypsin inhibitor heavy chain family member 6)", "TNF reporter robust z-score": -0.97}
{"gene knocked down": "ITIH6 (inter-alpha-trypsin inhibitor heavy chain family member 6)", "TNF reporter robust z-score": -0.17}
{"gene knocked down": "ITIH6 (inter-alpha-trypsin inhibitor heavy chain family member 6)", "TNF reporter robust z-score": -0.68}
{"gene knocked down": "ITIH6 (inter-alpha-trypsin inhibitor heavy chain family member 6)", "TNF reporter robust z-score": -0.15}
{"gene knocked down": "SLC24A4", "TNF reporter robust z-score": 1.93}
{"gene knocked down": "SLC24A4", "TNF reporter robust z-score": 0.29}
{"gene knocked down": "SLC24A4", "TNF reporter robust z-score": 1.07}
{"gene knocked down": "SLC24A4", "TNF reporter robust z-score": 0.27}
{"gene knocked down": "CMTM4 (CKLF like MARVEL transmembrane domain containing 4)", "TNF reporter robust z-score": -0.13}
{"gene knocked down": "CMTM4 (CKLF like MARVEL transmembrane domain containing 4)", "TNF reporter robust z-score": 0.01}
{"gene knocked down": "CMTM4 (CKLF like MARVEL transmembrane domain containing 4)", "TNF reporter robust z-score": -0.24}
{"gene knocked down": "CMTM4 (CKLF like MARVEL transmembrane domain containing 4)", "TNF reporter robust z-score": -1.07}
